The results in this text go back to PubChem BioAssay AID1487 (National Center for Advancing Translational Sciences (NCATS), 2009).

For orientation: AC50 means the concentration giving half of the maximal activity seen.

This assay in a line: qHTS Assay for Modulators of Lamin A Splicing. To be noted: HeLa LMNA splicing GFP/RFP minigene ratio, 48 h. In a few lines:
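S3 HeLa stable clones carrying a lamin A-EGFP splicing minigene plus DsRed2 were seeded at 600 cells/well in Opti-MEM with 2% FBS, pin-dosed and incubated 48 h at 37°C. Acumen cytometry (488 nm) gave the GFP/RFP total-intensity ratio.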

The mark [1] stands for this setting: measured here: RFP viability control channel.
The mark [2] stands for this setting: measured here: GFP splicing reporter channel.

Some of the results follow. Shown are side measurements of this screen, not its main read-out; they come without a call. Compounds called inactive in the main read-out are mostly missing here. Potencies come from curve fits of mixed quality, noted in brackets.

With `C#CCn1c(=NC(=O)c2ccc(S(=O)(=O)N3CCCc4ccccc43)cc2)sc2cc(S(N)(=O)=O)ccc21`, the AC50 under setting [1] was 0.708 µM [falling, full curve].

For `CCn1c2ccccc2c2cc(NC(=O)c3cccc(OC)c3OC)ccc21`, under setting [1], the AC50 is 20 µM [rising, partial curve, poor fit].

On to `Nc1nc(Cl)c(C=O)c(N2CCCCC2)n1`, for which the AC50 under setting [1] was 0.1 µM [falling, full curve, poor fit].

Take `CCOc1ccc(C(=O)NCc2ccccc2)cc1Br`: the AC50 under setting [1] was 11.2 µM [rising, single point].

With `CCN(CC)c1ccc(/C=C(/C#N)C(=O)NCc2ccccc2)o1`, the concentration at half-maximal activity (AC50) reads like this: under setting [2], 0.00447 µM [falling, full curve, poor fit]; under setting [1], 0.00501 µM [falling, full curve, poor fit].

For the compound `C[C@H]1Cc2c(COc3ccccc3)nc3c(c2CO1)CN(S(=O)(=O)c1ccc(Cl)c2nonc12)CC3`, the AC50 under setting [2] was 1.41 µM [rising, partial curve].

In the case of `O=C(N/N=C/c1ccc(N2CCOCC2)s1)c1ccccc1Cl`, under setting [2], the AC50 was 0.0224 µM [falling, full curve, poor fit].

With `Nc1nc(-c2ccccc2)c(N=Nc2ccccc2Cl)s1`, the AC50 is, setting by setting: under setting [2], 20 µM [rising, single point]; under setting [1], 12.6 µM [rising, partial curve, poor fit].

Take `COc1ccc(-c2nn(-c3ccccc3)cc2/C=N/Nc2ccccn2)cc1OC`: the AC50 reads like this: under setting [2], 35.5 µM [rising, single point]; under setting [1], 22.4 µM [rising, single point].

In the case of `O=C1CCC(C(=O)OCC(=O)N2N=C3/C(=C/c4ccccc4)CCCC3C2c2ccccc2)N1` (stereo unspecified), the AC50 under setting [1] is 15.8 µM [rising, single point].

For `O=C(CCCSc1nc2ccccc2[nH]1)Nc1nnc(-c2ccccc2)o1`, the AC50 under setting [2] was 12.6 µM [falling, single point].

Turning to `Cc1c(C(=O)Nc2ccc(Cc3ccncc3)cc2)cccc1[N+](=O)[O-]`, the half-maximal activity concentration (AC50) under setting [2] is 15.8 µM [rising, single point] and the AC50 under setting [1] was 25.1 µM [rising, single point].

Take `COCCCNC(=S)N1CCCN(c2nc3cc(C)c(C)cc3cc2C#N)CC1`: the AC50 under setting [1] was 31.6 µM [rising, single point].

As for `Cc1cc(C)n2nc(SCc3nnc(SCc4ccccc4C)s3)nc2n1`, the AC50 under setting [1] was 11.2 µM [rising, single point].

For `CCc1n[nH]c(=S)n1/N=C/c1c[nH]c2ccc(Br)cc12`, the AC50 under setting [2] is 0.00316 µM [falling, full curve, poor fit].

Consider `CN1CCN(c2nc(-c3ccc(Br)cc3)nnc2-c2ccccc2)CC1`, for which the AC50 under setting [2] was 20 µM [falling, partial curve, poor fit].

As for `CCOc1ccccc1C(=O)Nc1nnc(CC)s1`, the AC50 under setting [1] is 35.5 µM [rising, single point].

Consider `Cc1ccc2nc(NC(=O)COC(=O)c3ccc(Br)o3)sc2c1`, for which, under setting [1], the AC50 was 2.82 µM [falling, partial curve].

In the case of `CNC(=O)/C(C#N)=C/c1c(F)cccc1Cl`, the AC50 under setting [1] is 11.2 µM [rising, partial curve, poor fit].

Consider `CSCCC(NS(=O)(=O)c1ccccc1F)C(=O)OCc1ccccc1Cl` (stereo unspecified), for which the AC50 under setting [2] was 5.62 µM [rising, partial curve].

`O=C(NCC(c1cccs1)N1CCOCC1)c1ccc(Br)o1` (stereo unspecified): under setting [1], the AC50 is 15.8 µM [rising, single point].

In the case of `COCCCNC(=O)c1cccn2c(=O)c3cc4ccccc4cc3nc12`, the AC50 is 4.47 µM [falling, full curve] under setting [2] and 6.31 µM [falling, full curve] under setting [1].

On to `COc1ccc(NC(=O)C2CSC3c4ccccc4C(=O)N23)cc1` (stereo unspecified), for which, under setting [1], the AC50 was 2.24 µM [falling, full curve, poor fit].

For `CCOc1ccccc1NC(=O)CSc1nc2cccnc2n1C`, the AC50 by setting is: under setting [2], 10 µM [rising, partial curve]; under setting [1], 11.2 µM [rising, single point].

For the compound `O=C(N/N=C/c1cccc(O)c1)c1ccc(COc2ccccc2Br)cc1`, the AC50 under setting [2] is 35.5 µM [falling, single point].

On to `Oc1ccc(-c2[nH]ncc2-c2nc3ccccc3s2)c(O)c1`, for which, under setting [2], the AC50 was 35.5 µM [falling, partial curve, poor fit].

Consider `Cc1nc(SCn2nnc3ccccc3c2=O)nc(C)c1C`, for which, under setting [2], the AC50 was 8.91 µM [rising, partial curve, poor fit].

On to `O=C(c1ccc(COc2ccc(Br)cc2)o1)N1N=C(C(F)F)CC1(O)C(F)F` (stereo unspecified), for which the AC50 under setting [1] was 22.4 µM [rising, single point].

For the compound `COC(=O)CCC(=O)OC1(C)C(=O)C=C2C=C(C3CC3)N(C3CC3)C=C2C1=O` (stereo unspecified), the AC50 runs as follows: under setting [2], 3.55 µM [rising, partial curve, poor fit]; under setting [1], 5.62 µM [rising, partial curve].

Consider `Cc1csc(=Nc2c(C)n(C)n(-c3ccccc3)c2=O)n1-c1ccccc1`, for which the AC50 under setting [2] is 0.00562 µM [rising, full curve, poor fit] and the AC50 under setting [1] was 35.5 µM [rising, single point].

For the compound `O=C(c1ccc2ccccc2c1)N1CCN(c2ccccc2)CC1`, under setting [1], the concentration at half-maximal activity (AC50) is 15.8 µM [rising, single point].

On to `CCCC(=O)NC(c1cccs1)c1cc(Cl)c2cccnc2c1O` (stereo unspecified), for which, under setting [2], the AC50 was 14.1 µM [falling, single point].

`O=C(NNc1c2ccccc2nc2ccccc12)c1ccccc1O`: under setting [2], the AC50 is 35.5 µM [falling, single point].

With `CC(Sc1ccc2c(c1)OCCO2)C(=O)Nc1ccc2c(c1)OCO2` (stereo unspecified), the concentration at half-maximal activity (AC50) under setting [1] was 17.8 µM [rising, single point].

For the compound `CCOC(=O)C(C)c1nn(C)c(=O)c2ccccc12` (stereo unspecified), the AC50 was 35.5 µM [rising, single point] under setting [2] and 35.5 µM [rising, single point] under setting [1].

As for `O=C1CSC(c2cn(-c3ccccc3)nc2-c2ccccc2)N1Cc1ccco1` (stereo unspecified), the AC50 under setting [1] is 14.1 µM [rising, single point].

As to `Cc1ccc(C)c(-n2[nH]c3c4c(ccc3c2=O)C(=O)c2ccccc2C4=O)c1`, under setting [1], the AC50 is 2 µM [rising, full curve].

For the compound `OCCCC1CCCN(Cc2cn[nH]c2-c2ccc(F)cc2F)C1` (stereo unspecified), the AC50 under setting [1] was 3.98 µM [falling, partial curve].

Turning to `COc1ccccc1/C=N/NC(=O)c1ccc(NC(=O)c2cccc([N+](=O)[O-])c2)cc1`, the AC50 under setting [2] was 0.501 µM [rising, full curve, poor fit].

As for `Cc1ccc(NC(=O)Cn2c(=O)oc3ccccc32)cc1`, the concentration at half-maximal activity (AC50) under setting [2] is 0.02 µM [rising, full curve, poor fit].

As to `C=CCN1C=C2C(=O)C(C)(OC(=O)CCC(=O)OC)C(=O)C=C2C=C1C1CC1` (stereo unspecified), the AC50 under setting [1] is 0.794 µM [rising, full curve, poor fit].

Consider `Cc1ccc(/C=N/Nc2ccnc3cc(Cl)ccc23)c(C)c1`, for which, under setting [1], the AC50 is 6.31 µM [rising, partial curve, poor fit].

As for `CCOc1cc(/C=C/C(=O)O)ccc1OCc1ccccc1`, the AC50 was 0.447 µM [rising, full curve, poor fit] under setting [2] and 0.02 µM [rising, full curve, poor fit] under setting [1].

Turning to `Cc1ccccc1N1CCN(C(=S)c2ccc([N+](=O)[O-])cc2)CC1`, the AC50 was 10 µM [rising, partial curve, poor fit] under setting [2] and 14.1 µM [rising, partial curve, poor fit] under setting [1].

On to `COc1ccc(S(=O)(=O)N2c3ccccc3OCC2c2ccccc2)cc1` (stereo unspecified), for which the AC50 runs as follows: under setting [2], 6.31 µM [rising, single point]; under setting [1], 7.08 µM [rising, partial curve].

As to `COc1ccc2c(c1)C(C)=CC(C)(C)N2C(=O)CNCc1ccc2c(c1)OCO2`, under setting [1], the AC50 was 0.282 µM [rising, full curve, poor fit].

As for `CCOC(=O)N1CCC(NC(=O)CSCc2nc(-c3cccc(OC)c3)oc2C)CC1`, the AC50 under setting [1] is 10 µM [rising, single point].

Take `C[C@H](O)[C@@H]1C(=O)N2C(C(=O)O)=C(SCCN=CN)C[C@@H]12`: the AC50 is, setting by setting: under setting [2], 10 µM [falling, single point]; under setting [1], 5.62 µM [falling, single point].

Consider `O=C(CCN1CCc2ccccc2C1)c1ccc2c(c1)OCCO2`, for which the AC50 under setting [1] was 12.6 µM [rising, partial curve].

Take `COc1ccccc1N1CCN(c2nc(C)nc3c2oc2ccccc23)CC1`: the AC50 under setting [2] is 1.12 µM [rising, full curve] and the AC50 under setting [1] was 6.31 µM [rising, full curve].

Consider `Cc1ccc(OCCn2cc(/C=N/NC(=O)c3ccncc3)c3ccccc32)cc1`, for which the half-maximal activity concentration (AC50) under setting [1] is 22.4 µM [rising, single point].

`Cc1ccc(C2=CSC3=NCCN23)c(C)c1`: the AC50 under setting [2] was 5.62 µM [rising, partial curve].

`COc1ccc2nc(Nc3sc4c(c3C(N)=O)CCCC4)sc2c1`: under setting [1], the AC50 is 0.562 µM [rising, full curve].

As for `Cc1cc(=O)[nH]c(N/N=C/c2cccs2)n1`, the concentration at half-maximal activity (AC50) is, setting by setting: under setting [2], 22.4 µM [rising, single point]; under setting [1], 35.5 µM [rising, single point].

For `CCCn1c(=S)[nH]c2cc(OC)c(OC)cc2c1=O`, the AC50 under setting [2] was 0.794 µM [rising, full curve, poor fit].

Regarding `CN1CC(=O)Nc2cc(C(=O)O)ccc21`, the AC50 under setting [2] was 0.158 µM [falling, full curve, poor fit].

On to `Nc1cc(C2CCCC2)nn1-c1ccccc1`, for which the AC50 under setting [1] was 25.1 µM [rising, single point].

For the compound `O=Cc1cc2ccccc2nc1SCc1ccc(Cl)c(Cl)c1`, the AC50 was 4.47 µM [falling, partial curve] under setting [2] and 5.62 µM [falling, single point] under setting [1].

For `O=C(CSc1nccc(=O)[nH]1)Nc1ccc(Br)c(Cl)c1`, the AC50 was 2.51 µM [rising, full curve, poor fit] under setting [2] and 12.6 µM [rising, partial curve] under setting [1].
